Source: ChEMBL document CHEMBL3988442, “University of Dundee, Small-Polar-MMV Screening Library” (2021).

Chains of the proteins cited; added tags and fusions are not shown.
UniProt E9BF75, entry or part of it: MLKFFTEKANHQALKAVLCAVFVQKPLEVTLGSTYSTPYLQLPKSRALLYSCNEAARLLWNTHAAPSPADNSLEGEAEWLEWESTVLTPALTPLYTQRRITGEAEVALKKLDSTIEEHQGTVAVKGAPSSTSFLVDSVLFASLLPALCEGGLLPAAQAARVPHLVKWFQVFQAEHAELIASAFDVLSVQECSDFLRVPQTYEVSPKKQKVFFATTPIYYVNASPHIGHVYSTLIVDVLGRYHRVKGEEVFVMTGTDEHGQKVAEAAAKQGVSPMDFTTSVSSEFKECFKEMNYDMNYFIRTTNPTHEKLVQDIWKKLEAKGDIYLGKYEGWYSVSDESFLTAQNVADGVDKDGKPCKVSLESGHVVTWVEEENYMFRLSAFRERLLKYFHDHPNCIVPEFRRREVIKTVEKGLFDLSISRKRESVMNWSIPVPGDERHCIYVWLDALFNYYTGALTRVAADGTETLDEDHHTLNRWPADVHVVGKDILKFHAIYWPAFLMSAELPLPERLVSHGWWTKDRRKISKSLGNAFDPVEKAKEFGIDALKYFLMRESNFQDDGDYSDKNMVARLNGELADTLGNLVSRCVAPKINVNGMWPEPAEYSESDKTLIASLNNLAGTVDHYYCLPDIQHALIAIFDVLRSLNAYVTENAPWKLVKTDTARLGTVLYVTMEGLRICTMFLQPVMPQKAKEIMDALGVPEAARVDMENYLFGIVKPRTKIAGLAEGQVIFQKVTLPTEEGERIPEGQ

LdMetRS: 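Primary screen of methionyl-tRNA synthetase; the read-out is not stated. Target: Methionyl-tRNA synthetase (putative), Leishmania donovani (UniProt E9BF75). The test concentration is not given. Values are per cent inhibition. Of about 68,000 compounds tested this way, about 24 (0.035%) reached 50% or more in at least one test.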
Mtb heat-shock: 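Assay on Mycobacterium tuberculosis, filed only as a heat shock assay from Cornell; the read-out is not stated. The concentration is filed as 10 mM, unlikely as a test dose, so the dose is not known. Higher reads as stronger inhibition (inferred: compounds with an IC50 in retests scored well above the rest). Of about 69,000 compounds tested this way, about 930 (1.4%) reached 50% or more in at least one test.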

Results are percentages, as filed.
How 0% and 100% were set is not recorded. Most values in the screen are low, and negative values occur.
This is an unselected part of the compounds tested.
A dash means the value is not listed here; it may have been measured.

Compound | LdMetRS | Mtb heat-shock
COc1ccc(C(=O)n2nc(C)c(C)c2C)cc1 | 1.394 | -6.458
O=C(O)C(F)(F)F.[H][C@@]12COC[C@]1(COCC(=O)N(C)C)CN(C1CCCC1)C2 | - | 33.3
CC(C)c1cc(C(=O)N2C[C@H]3CC[C@@H]2CN(Cc2ccccn2)C3)no1 | 20.49 | -
c1cnc(-c2nc(CN3CCC(c4ccn[nH]4)CC3)cs2)nc1 | 17.46 | -4.822
O=C1CCC(=O)N1CCn1nnc(-c2cccc(Cl)c2)n1 | 8.101 | -24.84
CC(C)CC(=O)N1CC(=O)c2sc(NCCc3ccccc3)nc2C1 | 8.01 | -4.465
CCO[C@@H]1C[C@H]2CN(Cc3ccc(C)o3)CCN2C1 | 20.63 | -
CN(C)C(=O)CC1CC2(CCN(C(=O)N(C)C)CC2)Oc2ccccc21 (stereo not shown) | 14.5 | 11.18
[H][C@]12CCN(C(=O)c3cccc(F)c3)C[C@@]1([H])OCCN(c1ncccn1)C2 | - | 1.084
CN(Cc1cccnc1)Cc1cncc2c1CCN(c1ccccn1)C2.Cl.Cl.Cl | - | 34.11
COCCN1CCC2(CC1)CN(C(=O)c1cccs1)CCO2 | -7.283 | -
Cc1nn(C)cc1C(=O)N1C[C@H]2CC[C@@H]1CN(S(=O)(=O)N(C)C)C2 | 10.73 | -
CCC(CNC(=O)c1cc(OC)ccc1Br)N1CCc2ccccc2C1 (stereo not shown) | 3.261 | -5.858
O=C(NCc1cccnc1)NCC(O)c1ccccc1C(F)(F)F (stereo not shown) | 8.362 | 7.937
NCC(=O)N1CCCC1c1nccnc1Nc1ncccn1 (stereo not shown) | 12.47 | -
CN(Cc1ccccc1)CC(C)(C)NC(=O)c1cnccn1 | 13.52 | 13.12
Cc1nc(-c2cccc(C(=O)N(C)C)c2)cs1 | 14.49 | 17.47
COCC(=O)N1CCCC(c2cc(C(F)F)n3ncnc3n2)C1.Cl (stereo not shown) | - | -12.39
COc1ccc(OCC(=O)NC(C)c2ccc(F)cc2)c(C(=O)O)c1 (stereo not shown) | 14.5 | 6.259
COCCN1CCC2(CC1)CC(NC(=O)C1CC1)c1ccccc1O2 (stereo not shown) | 16.25 | -
CS(=O)(=O)N1CCN(c2cc(-n3cccc3)ncn2)CC1 | 9.353 | 3.653
CCOc1ccnc(N2CCN(C(=O)c3cc(Cl)c[nH]3)CC2)n1 | 9.859 | 7.855
Cc1ccc(C2CN(CCS(=O)(=O)C(C)C)CCO2)c(C)c1 (stereo not shown) | 9.164 | -10.7
CCC(CO)N(Cc1ccco1)C(=O)c1ccccc1SC (stereo not shown) | 8 | -4.218
CC(C)COc1cncc(NCC(O)c2ccco2)n1 (stereo not shown) | 6.593 | -29.93
C[C@@H]1CN(Cc2cccc(F)c2)C[C@]12CCN(Cc1cccnc1)C2=O | 11.22 | -
Cc1ncc(C(=O)NCCNc2ccncc2)s1 | 10.28 | 5.124
COCc1nc(CNc2cc(C)on2)cs1 | 11.56 | -14.93
COC(C(=O)NC1CC1)c1ccccc1 (stereo not shown) | -16.57 | -9.218
COc1cc(OC)cc(-c2noc(C(N)CCSC)n2)c1 (stereo not shown) | 10.22 | -7.745
c1cc(-c2ccc3nc(C4CCN(CC5CC5)CC4)nn3c2)ccn1 | 6.875 | -
COc1ncccc1CN1C[C@@H]2COC[C@]2(CNC(=O)c2ccno2)C1 | 7.781 | -
O=C1CO[C@@H]2CN(C3CCOCC3)C[C@H]2N1Cc1cccc(F)c1 | 14.29 | -
Cc1ncc2c(c1C(=O)O)CCN(c1ncc(F)cn1)C2 | 14.29 | -
O=C(NCc1ccccn1)[C@@]12CCO[C@@H]1CCN(c1ncccn1)C2 | 13.44 | -
CC(NC(=O)NCc1cccnc1N(C)C)c1cccs1 (stereo not shown) | 13.62 | -8.308
CN1CCc2c(C#N)c(NCc3cccnc3)n3cnnc3c2C1.Cl | - | -37.17
CSCC(C)(O)CNC(=O)c1ccc(F)cc1Br (stereo not shown) | 12.36 | 6.376
O=C(O)C(F)(F)F.[H][C@]12CCCN(CC3CC3)[C@@]1([H])CN(C(=O)c1ccco1)C2 | - | 11.5
CN(Cc1cn2c(n1)CN(c1ncc(F)cn1)CC2)Cc1ccco1 | 10.1 | -
CCNC(=O)Cc1c(C)nc2c(c1C)c(=O)[nH]n2C | 27.33 | -6.663
Cc1cnn(C2CCCN(C(=O)CCNS(C)(=O)=O)C2)c1 (stereo not shown) | 14.44 | -19.98
CC(C)COC(=O)N1CCCN(Cc2nnc(C(C)(C)C)o2)CC1 | 10.33 | -29.12
Cc1cc(C(=O)N2CCCC3(CCCN3Cc3cccnc3)C2)[nH]n1 (stereo not shown) | 8.029 | -23.81
CC[C@@H]1N(CC2CC2)CCC[C@]12CCC(=O)N2CCOC | 15.48 | -
NC1(CNC(=O)c2cc3ccccc3[nH]2)CCCC1 | -0.2778 | -31.95
CCOC(=O)NCC(=O)Nc1nc2ccccc2n1C(C)(C)C | -1.393 | 5.87
COC(=O)c1ccc(Cl)c(CN(C)Cc2ncnn2C)c1 | 14.29 | -33.79
CCN(CC1CCCO1)C(=O)Nc1cc(C(=O)OC)ccc1F (stereo not shown) | 6.103 | 16.35
O=C(Cc1cccc(F)c1)NCCNCC1CNc2ccnn2C1 (stereo not shown) | 15.22 | -21.15
CCC(CC)CNC(=O)N(C)C(C)c1ccccn1 (stereo not shown) | 5.615 | -39.06
CCCC(=O)NCc1ccc(N2CCCCC2)cc1 | 21.77 | -15.61
[H][C@@]12CCN(C(=O)N(C)C)[C@]1([H])CC[C@@H](C(=O)NC)O2 | - | -7.112
NC(=O)NCC(=O)N1CCCC(c2nccn2Cc2ccncc2)C1 (stereo not shown) | 8.511 | -11.98
[H][C@@]12CN(C(=O)NC3CCCC3)C[C@]1(C(=O)O)CN(c1ccc(C)nn1)C2 | - | -91.3
CN(CCCc1cnn(C)c1)C(=O)Nc1cccc(C#N)c1 | 3.014 | -14.78
Cc1cnn(CCNCC(O)COc2c(C)ccc(C)c2C)c1 (stereo not shown) | 12.68 | 6.644
C[C@@H]1CN(Cc2cc3ccccc3n2C)CC[C@]1(C)O | 6.504 | 1.199
CC(=O)N1CCN(CCNS(=O)(=O)c2ccc(C)c(F)c2)CC1 | 4.225 | -19.87
Cc1cc(N2CCCN(C(=O)Cc3csc(C)n3)CC2)ccn1 | 13.41 | -18.94
COc1ccc(CNC(Cc2cccs2)c2nc(C)c(C)s2)cc1OC.Cl (stereo not shown) | - | -4.28
CNC(=O)[C@@H]1C[C@@H](NC(=O)CCCc2cccs2)CN1C1CCOCC1 | 13.97 | -40.66
Cc1cc(C)n(CC2CCCCN2CC(=O)Nc2nncs2)n1 (stereo not shown) | 15.61 | 69.77
CC(NC(=O)NC1CCN(Cc2ccccc2)CC1)c1nncn1C (stereo not shown) | 7.521 | -14.87
Cc1noc(C(C)N2CCC(c3nc4ccccc4[nH]3)CC2)n1 (stereo not shown) | 16.11 | -5.439
CC(=O)N1CCC(N[C@@H]2CO[C@H](CNC(=O)c3cccs3)[C@H]2O)CC1 | 7.143 | -33.43
CN1CCCC(c2cncc(C(=O)NCc3ccccc3Cl)n2)C1 (stereo not shown) | 21.52 | -
Cc1cc(CN2C[C@@H]3CN(C(=O)c4ccco4)CCO[C@@H]3C2)no1 | 15.07 | -
CC1CCCCN1C(=O)c1cn(-c2ccc(C(F)(F)F)cn2)nn1 (stereo not shown) | 12.04 | 14.9
COc1cccc(CNc2c(O)c(=O)c2=O)c1 | 18.66 | 2.378
OC(CN1CCN(Cc2ccc(F)c(F)c2)CC1)C1CC1 (stereo not shown) | 9.36 | -
NC(=O)[C@@H]1Cc2ccccc2CN1S(=O)(=O)N1CCCCCC1 | 14.11 | 24.66
CCN(CC)S(=O)(=O)N1C[C@@H](O)[C@H](Oc2cccc(F)c2)C1 | 13.02 | -26.78
O=C(O)C(F)(F)F.[H][C@@]12CCN(C(=O)c3cscn3)[C@@]1([H])CCN2CC1CCOC1 (stereo partly shown) | - | 10.99
Cc1nn(C)c(C)c1OCC(=O)NCC(O)Cc1ccccc1 (stereo not shown) | 15.38 | 12.48
Cc1cc(C(=O)NCc2cccn2C)nn1C | 0.5391 | -5.519
COc1ccc(COCC(O)CNC(=O)c2cc(C)no2)cc1 (stereo not shown) | 19.2 | -0.4141

Repeated from the top, 5 entries:

* COc1ccc(C(=O)n2nc(C)c(C)c2C)cc1 | LdMetRS: 1.394%; Mtb heat-shock: -6.458%
* O=C(O)C(F)(F)F.[H][C@@]12COC[C@]1(COCC(=O)N(C)C)CN(C1CCCC1)C2 | Mtb heat-shock: 33.3%
* CC(C)c1cc(C(=O)N2C[C@H]3CC[C@@H]2CN(Cc2ccccn2)C3)no1 | LdMetRS: 20.49%
* c1cnc(-c2nc(CN3CCC(c4ccn[nH]4)CC3)cs2)nc1 | LdMetRS: 17.46%; Mtb heat-shock: -4.822%
* O=C1CCC(=O)N1CCn1nnc(-c2cccc(Cl)c2)n1 | LdMetRS: 8.101%; Mtb heat-shock: -24.84%